# Measurements reported in PubChem BioAssay AID504444 (National Center for Advancing Translational Sciences (NCATS), 2011).
# Out of some 360,000 compounds screened, about 7,500 (2.1%) were called active. The shares of active, inactive and inconclusive entries below differ from those in the screen. The call rests on the fitted dose curve; in most records, active means well fitted inhibition curve with a large enough effect; inconclusive means small, poorly fitted or top-dose-only effect, or effect the other way; inactive means flat fitted curve, though single readings scatter. Potencies of inconclusive entries are doubtful fits and often do not repeat.
# Assay: Nrf2 qHTS screen for inhibitors; further: nearly all actives have a fitted effect of over 60% in size
# Details: A549 ARE-Fluc reporter, luciferase luminescence, 18-24 h; series mostly up to 46 µM
# In short: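 Cells were seeded and rested 2 h, then exposed to compounds for 18-24 h. CellTiter-Fluor was read first as a viability measure. BugLite was added 15 min before the final luminescent read of ARE-luciferase activity in A549 cells.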
# Potency means the concentration at half of the fitted maximal effect.
row,SMILES,Potency
1,Cc1nc(Cl)c(C(=O)NC(=O)Nc2cccc(C(F)(F)F)c2)c(C)c1[N+](=O)[O-],"inconclusive: 35.5 µM [falling, single point]"
2,NC(=O)c1ccc(Cn2c(C(=O)c3ccc(Cl)cc3)c3ccccc3[n+]2[O-])cc1,"inconclusive: 20.6 µM [falling, partial curve, poor fit]"
3,O=C(/C=C/c1ccc([N+](=O)[O-])s1)N1CCN(c2ccccc2)CC1,"inconclusive: 29.1 µM [falling, single point]"
4,CCc1ccc(CN(Cc2ccco2)C(=O)c2ccc(C)cc2)cc1,inactive
5,Oc1ccc(CN2CCN(c3ccccc3)CC2)c2cccnc12,"inconclusive: 18.4 µM [falling, single point]"
6,Cc1ccc2c(NC(=S)NC(=O)c3ccccc3)cccc2n1,"inconclusive: 23.1 µM [falling, single point]"
7,COc1ccccc1-c1cc(C(=O)NCc2ccc(Cl)cc2)no1,"inconclusive: 4.61 µM [falling, partial curve, poor fit]"
8,CC(=O)Nc1ccccc1-c1nc2ccccc2n(C(C)C(=O)Nc2cccc(C)c2C)c1=O (stereo unspecified),"inconclusive: 23.1 µM [activator, partial curve, poor fit]"
9,COc1cccc(OC)c1OCCCc1c(C)n[nH]c1C,"inconclusive: 14.6 µM [falling, partial curve]"
10,CCN(CC)S(=O)(=O)c1ccc2c(c1)N(CC(=O)N1CCC(C(N)=O)CC1)C(=O)CO2,"inconclusive: 6.51 µM [activator, partial curve, poor fit]"
11,COC(=O)C1=C(C)NC2=C(C(=O)CC(C)(C)C2)C1c1ccccn1 (stereo unspecified),inactive
12,O=C(O)C1(c2ccccc2)CCN(S(=O)(=O)c2ccc(Br)cc2)CC1,"inconclusive: 20.6 µM [falling, single point]"
13,CN(CC1CCCO1)S(=O)(=O)c1ccc(C(=O)Nc2ccc(F)cc2)cc1 (stereo unspecified),"inconclusive: 20.6 µM [falling, single point]"
14,CC1=C([N+](=O)[O-])C(c2cccc(Br)c2)C2=C(N1)c1ccccc1C2=O (stereo unspecified),"inconclusive: 29.1 µM [falling, single point]"
15,c1ccc(CSc2cc3ccccc3[nH]2)cc1,"inconclusive: 16.4 µM [activator, partial curve]"
16,CCSc1nc2sc3c(c2c(=O)n1-c1ccc(C)cc1)CCN(C)C3,"inconclusive: 29.1 µM [falling, single point]"
17,CNC(=O)NC(=O)C(C)OC(=O)CCCSc1nc2ccccc2s1 (stereo unspecified),"inconclusive: 29.1 µM [falling, single point]"
18,CCc1ccc(NC(=O)NCCCN2CCCC2=O)cc1,"inconclusive: 18.4 µM [activator, single point]"
19,COc1ccccc1NC(=O)C1=C(C)Nc2nc(-c3cccnc3)nn2C1c1ccccn1 (stereo unspecified),inactive
20,C=CCn1c(SCC(C)=O)nnc1-c1cc(-c2ccccc2)sc1N,inactive
21,COCc1ccc(CN2CCC(n3nccc3NC(=O)CCOc3ccccc3)CC2)o1,inactive
22,O=C(O)c1ccc(N/N=C/c2ccc3nccnc3c2)cc1,"inconclusive: 25.9 µM [falling, single point]"

row,SMILES,Potency
1,CC(=O)c1c(C)[nH]c(C(=O)Nc2ccc(C)cn2)c1C,"inconclusive: 14.6 µM [falling, single point]"
2,CCC(C(=O)N(C)Cc1ccccc1)n1nc(C)c2sc3ccccc3c2c1=O (stereo unspecified),"inconclusive: 10.3 µM [falling, partial curve]"
3,COc1ccc(-c2ccc(SCc3cccnc3)nn2)cc1OC,"inconclusive: 16.4 µM [falling, single point]"
4,NC(N)=N/N=C/c1ccc(OCc2ccccc2)cc1,inactive
5,O=C(CCc1nc2ccccc2s1)N1CCN(c2ccccc2)CC1,"inconclusive: 18.4 µM [falling, partial curve, poor fit]"
6,COCCn1c(C)cc(C(=O)COc2ccc(N(C)S(=O)(=O)c3ccc(C)cc3)cc2)c1C,"inconclusive: 29.1 µM [falling, single point]"
7,Cc1cc(C)c(C(=O)N2CCC(N3CCC(C(=O)NC(C)C)CC3)CC2)o1,inactive
8,CN(C)c1ccc(-c2noc(-c3ccccc3O)n2)cc1,"inconclusive: 4.11 µM [activator, single point]"
9,COC(=O)c1c(NC(=O)c2c(OC)cccc2OC)sc2c1C(C(=O)OC)CC2 (stereo unspecified),active: 13 µM
10,COc1ccc(CNC(=O)CCc2c(C)nn(-c3ccc(N4CCOCC4)nn3)c2C)cc1,"inconclusive: 29.1 µM [activator, single point]"
11,COC(=O)C1=C(C)N(Cc2ccc(C)cc2)C(=O)/C1=C\c1cc(OC)c(OC)c(OC)c1,"inconclusive: 29.1 µM [activator, single point]"
12,Cc1ccc(CCNS(=O)(=O)c2ccc3c(c2)CCN3C(=O)CCC(=O)O)cc1,"inconclusive: 3.66 µM [activator, partial curve, poor fit]"
13,CCN(CC)C(=O)c1cc2c(=O)n3cccc(C)c3nc2n1C,inactive
14,O=c1[nH]c(Sc2ccc([N+](=O)[O-])cc2[N+](=O)[O-])nc2ccccc12,inactive
15,Cc1ccc(NS(=O)(=O)c2cc(C(=O)N(C)C)ccc2C)cc1C,"inconclusive: 10.3 µM [falling, partial curve]"
16,O=C(c1ccccc1)c1c[nH]c(C(=O)NNc2ccccc2)c1,"inconclusive: 29.1 µM [falling, single point]"
17,COc1ccc(Br)cc1C1CC(=O)N2CN(Cc3ccccc3)CSC2=C1C#N (stereo unspecified),inactive
18,CCN(Cc1ccncc1)C(=O)c1ccccc1NS(=O)(=O)c1ccc(Br)cc1,"inconclusive: 32.6 µM [falling, single point]"
19,CCOc1cc(CNCCSc2nnnn2C)cc(Cl)c1OCc1ccc(Cl)cc1,"inconclusive: 20.6 µM [falling, single point]"
20,CCC(Oc1ccccc1)C(=O)Nc1ccccn1 (stereo unspecified),"inconclusive: 8.2 µM [activator, partial curve]"
21,O=C(NCC(c1cccnc1)N1CCc2ccccc2C1)C(=O)Nc1cccc(Cl)c1 (stereo unspecified),"inconclusive: 29.1 µM [falling, single point]"
22,COCCn1c(C)cc(/C=C(\C#N)C(=O)OCC(=O)Nc2ccc(S(N)(=O)=O)cc2)c1C,"inconclusive: 23.1 µM [activator, single point]"

row,SMILES,Potency
1,Nc1ccccc1C(=O)N=Nc1[nH]c(N)c2ccccc12,"inconclusive: 2.91 µM [activator, full curve]"
2,CC(Oc1ccc(Br)cc1)C(=O)NCc1ccccn1 (stereo unspecified),inactive
3,CCC(C)c1ccc(S(=O)(=O)N2CCN(C(=O)COc3ccc4c(C)cc(=O)oc4c3)CC2)cc1 (stereo unspecified),inactive
4,N#Cc1ccccc1NC(=O)c1cccc(COc2ccc(Cl)cc2Cl)c1,"inconclusive: 1.16 µM [activator, full curve]"
5,Cc1csc(NC(=O)c2ccc(COc3ccccc3)o2)n1,"inconclusive: 8.2 µM [activator, partial curve, poor fit]"
6,COc1ccc(-c2cc(C(=O)NCCc3ccccc3)c3c(-c4ccccc4)[nH]nc3n2)cc1,inactive
7,CSc1ncc(C(=O)N2CCN(c3ccc(Cl)cc3)CC2)c(C)n1,"inconclusive: 18.4 µM [falling, single point]"
8,Cc1cc(OCC(=O)Nc2cc(S(=O)(=O)N3CCOCC3)ccc2N2CCCC2)ccc1C(C)C,active: 16.4 µM
9,CCOC(=O)C1=C(O)C(Nc2nc3ccccc3s2)(C(F)(F)F)N=C1C (stereo unspecified),"inconclusive: 16.4 µM [falling, partial curve, poor fit]"
10,Cc1cccc(-n2c(=O)[nH]c3c(C(N)=O)nc(-c4ccccc4Cl)nc32)c1,"inconclusive: 32.6 µM [falling, single point]"
11,O=C(CCS(=O)(=O)c1ccccc1)Nc1ccc(-c2nc3ccccc3s2)cc1,"inconclusive: 7.31 µM [activator, partial curve]"
12,O=C(C1CCN(S(=O)(=O)c2c(Cl)cccc2Cl)CC1)N1CCCCCCC1,inactive
13,COc1ccc(S(=O)(=O)NCC(c2ccc3c(c2)OCO3)N2CCN(c3ccccc3)CC2)cc1 (stereo unspecified),inactive
14,Cc1nc(-c2ccccc2)sc1-c1nc(-c2ccncc2)ncc1S(=O)(=O)c1ccccc1,"inconclusive: 10.3 µM [falling, single point]"
15,CCOc1ccccc1N(CC(=O)Nc1c(C)n(C)n(-c2ccccc2)c1=O)S(=O)(=O)c1ccccc1,"inconclusive: 23.1 µM [falling, partial curve, poor fit]"
16,CN(C)S(=O)(=O)c1cccc(NC(=S)Nc2cccc3cnccc23)c1,"inconclusive: 18.4 µM [falling, single point]"
17,CSc1cccc(NC(=O)CC(c2ccc(F)cc2)N2Cc3ccccc3C2=O)c1 (stereo unspecified),inactive
18,CCOc1ccc(/C=C2\CCc3ccccc3C2=O)cc1,"inconclusive: 29.1 µM [activator, single point]"
19,COc1cc(C(=S)N2CCCC2)ccc1OS(=O)(=O)c1ccc(NC(C)=O)cc1,"inconclusive: 18.4 µM [falling, partial curve, poor fit]"
20,Cn1cccc1C(=O)NC(=O)COC(=O)CNC(=O)c1ccc(Cl)cc1Cl,active: 2.59 µM
21,O=C(/C=C/c1ccc(F)cc1)NC(=S)NNC(=O)c1cnccn1,"inconclusive: 5.8 µM [falling, full curve, poor fit]"
22,Cc1ccc(OCC(=O)Nc2ccc(N3CCN(C(=O)c4ccco4)CC3)cc2)cc1C,"inconclusive: 25.9 µM [falling, single point]"

# At a glance, some entries already given.
row,SMILES,Potency
4,N#Cc1ccccc1NC(=O)c1cccc(COc2ccc(Cl)cc2Cl)c1,"inconclusive: 1.16 µM [activator, full curve]"
5,Cc1csc(NC(=O)c2ccc(COc3ccccc3)o2)n1,"inconclusive: 8.2 µM [activator, partial curve, poor fit]"
6,COc1ccc(-c2cc(C(=O)NCCc3ccccc3)c3c(-c4ccccc4)[nH]nc3n2)cc1,inactive
7,CSc1ncc(C(=O)N2CCN(c3ccc(Cl)cc3)CC2)c(C)n1,"inconclusive: 18.4 µM [falling, single point]"
8,Cc1cc(OCC(=O)Nc2cc(S(=O)(=O)N3CCOCC3)ccc2N2CCCC2)ccc1C(C)C,active: 16.4 µM
9,CCOC(=O)C1=C(O)C(Nc2nc3ccccc3s2)(C(F)(F)F)N=C1C (stereo unspecified),"inconclusive: 16.4 µM [falling, partial curve, poor fit]"
10,Cc1cccc(-n2c(=O)[nH]c3c(C(N)=O)nc(-c4ccccc4Cl)nc32)c1,"inconclusive: 32.6 µM [falling, single point]"
11,O=C(CCS(=O)(=O)c1ccccc1)Nc1ccc(-c2nc3ccccc3s2)cc1,"inconclusive: 7.31 µM [activator, partial curve]"
12,O=C(C1CCN(S(=O)(=O)c2c(Cl)cccc2Cl)CC1)N1CCCCCCC1,inactive
13,COc1ccc(S(=O)(=O)NCC(c2ccc3c(c2)OCO3)N2CCN(c3ccccc3)CC2)cc1 (stereo unspecified),inactive
14,Cc1nc(-c2ccccc2)sc1-c1nc(-c2ccncc2)ncc1S(=O)(=O)c1ccccc1,"inconclusive: 10.3 µM [falling, single point]"
15,CCOc1ccccc1N(CC(=O)Nc1c(C)n(C)n(-c2ccccc2)c1=O)S(=O)(=O)c1ccccc1,"inconclusive: 23.1 µM [falling, partial curve, poor fit]"
16,CN(C)S(=O)(=O)c1cccc(NC(=S)Nc2cccc3cnccc23)c1,"inconclusive: 18.4 µM [falling, single point]"
17,CSc1cccc(NC(=O)CC(c2ccc(F)cc2)N2Cc3ccccc3C2=O)c1 (stereo unspecified),inactive
18,CCOc1ccc(/C=C2\CCc3ccccc3C2=O)cc1,"inconclusive: 29.1 µM [activator, single point]"
19,COc1cc(C(=S)N2CCCC2)ccc1OS(=O)(=O)c1ccc(NC(C)=O)cc1,"inconclusive: 18.4 µM [falling, partial curve, poor fit]"
20,Cn1cccc1C(=O)NC(=O)COC(=O)CNC(=O)c1ccc(Cl)cc1Cl,active: 2.59 µM
21,O=C(/C=C/c1ccc(F)cc1)NC(=S)NNC(=O)c1cnccn1,"inconclusive: 5.8 µM [falling, full curve, poor fit]"
22,Cc1ccc(OCC(=O)Nc2ccc(N3CCN(C(=O)c4ccco4)CC3)cc2)cc1C,"inconclusive: 25.9 µM [falling, single point]"
